Measurements published in PubChem BioAssay AID1347131 (National Center for Advancing Translational Sciences (NCATS), 2019).
Screen size: about 410,000 compounds; about 2,000 (0.49%) were called active. This list was built around the results that the source calls inconclusive (neither active nor inactive); the mix of calls is not that of the screen. Calls follow the shape of the full dose curve; tested in HEK293 reporter line. Potencies of inconclusive entries are doubtful fits and often do not repeat.
Potency is read from the fitted curve at half-maximal effect.

Assay: qHTS Assay for Foot and Mouth Disease Virus Antivirals: Primary Screen against the MLPCN compound library; also: nearly all actives have a fitted effect of over 55% in size
Settings: FMDV antiviral cell-based qHTS; activity, negative = inhibition: at 57.9 µM (top of the series)
With `CC(C)c1ccc(/C=C(\c2nc3ccccc3[nH]2)S(=O)(=O)c2ccccc2)cc1` the Potency was inconclusive: 10 µM [inhibitor, partial curve, poor fit].
For `Cc1noc(/C=C/N(C)C)c1S(=O)(=O)N1CCC(C(=O)Nc2ccc(Cl)cc2)CC1`, the Potency was inconclusive: 0.631 µM [inhibitor, partial curve, poor fit].
With `COc1ccc(Oc2c(Cl)cnn(-c3ccc(Cl)c(Cl)c3)c2=O)cc1` the Potency was inconclusive: 28.2 µM [inhibitor, single point].
For `CSc1ccc(CN(C)C(C)C(=O)NCc2ccccc2)cc1` (configuration not stated), the Potency was inconclusive: 28.2 µM [inhibitor, partial curve, poor fit].
For `Cc1cccc(NC(=O)c2nc(S(C)(=O)=O)ncc2Cl)c1`, the Potency was inconclusive: 25.1 µM [inhibitor, partial curve, poor fit].
In the case of `COc1ccc(C2C(C#N)=C(N)OC3=C2C(=O)CC(C)(C)C3)cc1Cn1cc([N+](=O)[O-])cn1` (configuration not stated), the Potency is reported as inconclusive: 11.2 µM [inhibitor, partial curve].
With `CCCC(=O)Nc1ccc(C(=O)N/N=C/c2ccc[nH]2)cc1` the Potency was inconclusive: 28.2 µM [inhibitor, partial curve, poor fit].
With `Cc1nc2ccc(NC(=O)c3cccc(S(=O)(=O)N(C)c4ccccc4)c3)cc2s1` the Potency was inconclusive: 25.1 µM [inhibitor, partial curve, poor fit].
With `COc1ccc(C(=O)OC(C(=O)c2ccccc2)c2ccccc2)cc1` (configuration not stated) the Potency was inconclusive: 10 µM [inhibitor, partial curve].
In the case of `O=C(c1ccccc1F)N1CCN(c2ccccc2)CC1`, the Potency is reported as inconclusive: 11.2 µM [inhibitor, partial curve].
In the case of `CN(Cc1ccccc1)C(=O)c1cccc(NC(=O)Cc2ccc(NC(=O)C3CCN(C(=O)CCc4ccccc4)CC3)cc2)c1`, the Potency is reported as inconclusive: 17.8 µM [inhibitor, partial curve, poor fit].
For `O=C(Nc1nc(-c2cccs2)cs1)c1ccc(S(=O)(=O)N2CCCCC2)cc1`, the Potency was inconclusive: 15.8 µM [inhibitor, partial curve, poor fit].
For `COc1ccc(/C=C2\C(=O)ON=C2c2ccccc2)cc1`, the Potency was inconclusive: 35.5 µM [inhibitor, single point].
With `O=C(CNC(=O)C12CC3CC(CC(C3)C1)C2)N1CCN(S(=O)(=O)/C=C/c2ccccc2)CC1` the Potency was inconclusive: 39.8 µM [inhibitor, partial curve, poor fit].
In the case of `CN(CC(=O)Nc1ccc(Cl)cc1)C(=O)c1cccc(S(=O)(=O)N2CCN(Cc3ccccc3)CC2)c1`, the Potency is reported as inconclusive: 22.4 µM [inhibitor, partial curve, poor fit].
For `Cc1ccccc1OCCCCCn1ccnc1`, the Potency was inconclusive: 12.6 µM [inhibitor, partial curve].
For `O=C1NC(=O)C(=Cc2ccc(-c3ccccc3[N+](=O)[O-])o2)C(=O)N1`, the Potency was inconclusive: 35.5 µM [inhibitor, partial curve, poor fit].
In the case of `O=C(/C=C/c1ccc(OC(F)F)cc1)OCC(=O)N1CCC(c2ccccc2)=N1`, the Potency is reported as inconclusive: 20 µM [inhibitor, partial curve, poor fit].
In the case of `Cn1c(=O)c2c(ncn2Cc2ccccc2)n(C)c1=O`, the activity, negative = inhibition is reported as inconclusive: -30% [inhibitor].
In the case of `COc1c2ccccc2nc2ccccc12`, the Potency is reported as inconclusive: 3.98 µM [inhibitor, partial curve, poor fit].
With `CC1CC(=O)N(c2ccc(NCCc3ccc(O)cc3)c([N+](=O)[O-])c2)C1=O` (configuration not stated) the Potency was active: 25.1 µM.
With `O=C(CSc1n[nH]c(-c2ccccc2Cl)n1)N1CCN(c2ccccc2)CC1` the Potency was inconclusive: 35.5 µM [inhibitor, partial curve, poor fit].
In the case of `Cn1nnnc1Sc1ncnc2scc(-c3ccc(F)cc3)c12`, the Potency is reported as inconclusive: 15.8 µM [inhibitor, partial curve, poor fit].
For `CC1=NOC(=O)/C1=C/c1ccc(O)c(Cl)c1`, the Potency was inconclusive: 17.8 µM [inhibitor, partial curve, poor fit].
With `CN(c1ccccc1)S(=O)(=O)c1cccc(NC(=O)c2cc(=O)c3ccccc3o2)c1` the Potency was inconclusive: 31.6 µM [inhibitor, partial curve, poor fit].
For `COc1cc(/C=C/C(=O)c2cccc([N+](=O)[O-])c2)cc(OC)c1OC`, the Potency was inconclusive: 28.2 µM [inhibitor, partial curve, poor fit].
For `Cc1ccc(S(=O)(=O)N2CCN(C(=O)c3cc4c(C)nn(-c5ccccc5C)c4s3)CC2)cc1`, the activity, negative = inhibition was inconclusive: -30.6% [inhibitor].
In the case of `COc1ccc(OCc2cccc(C(=O)NN)c2)cc1`, the Potency is reported as inconclusive: 8.91 µM [inhibitor, full curve, poor fit].
With `CC(Oc1ccccc1)C(=O)NC1CCN(Cc2ccccc2)CC1` (configuration not stated) the activity, negative = inhibition was inconclusive: -30.8% [inhibitor].
With `COc1cc([N+](=O)[O-])cc(/C=N/NC(=O)c2cccnc2)c1O` the Potency was inconclusive: 4.47 µM [inhibitor, full curve].
With `COC(=O)[C@]1(C)CC[C@@]2(C)CC[C@@]3(C)C4=CCc5c(cc(O)c(O)c5C)[C@]4(C)CC[C@@]3(C)C2C1` (some centres not stated) the Potency was inconclusive: 20 µM [inhibitor, partial curve, poor fit].
In the case of `COc1ccc(Cl)cc1C(=O)Nc1sc2c(c1C(=O)OC(C)C)CCCC2`, the Potency is reported as inconclusive: 6.31 µM [inhibitor, partial curve].
For `CCOc1cc(/C=C2\C(=O)ON=C2c2ccccc2)ccc1OC`, the Potency was inconclusive: 35.5 µM [inhibitor, single point].
In the case of `COC(=O)C1(Cc2ccccc2)NC(c2ccccc2C)C2C(=O)N(c3ccc4c(c3)OCO4)C(=O)C21` (configuration not stated), the Potency is reported as inconclusive: 2 µM [inhibitor, full curve].
In the case of `COc1ccc(-c2cc(C(F)(F)F)nc(S(=O)(=O)CCCC(=O)Nc3cccc(O)c3)n2)cc1OC`, the Potency is reported as inconclusive: 20 µM [inhibitor, partial curve, poor fit].
For `COc1cc(CC(=O)Nc2nc(-c3ccc(F)c(F)c3)cs2)cc(OC)c1OC`, the Potency was inconclusive: 20 µM [inhibitor, partial curve, poor fit].
For `CCOc1ccc(-c2cn3ccccc3n2)cc1`, the Potency was inconclusive: 12.6 µM [inhibitor, single point].
With `CN1Cc2c(N3CCOCC3)nc3sc(C#N)c(N)c3c2CC1(C)C` the Potency was inconclusive: 2 µM [inhibitor, full curve].
For `CC(=O)Nc1cccc(NC(=O)CN2c3cccc4cccc(c34)S2(=O)=O)c1`, the activity, negative = inhibition was inconclusive: -31.7% [inhibitor].
With `Cn1c(=O)c2c([nH]c(OCc3ccc(Cl)cc3Cl)[n+]2Cc2ccc(F)cc2)n(C)c1=O` the activity, negative = inhibition was inconclusive: -45.6% [inhibitor].
For `O=C(CCl)c1cc2c3c(c1)CC(=O)N3CCC2`, the Potency was inconclusive: 22.4 µM [inhibitor, partial curve, poor fit].
In the case of `Cc1cccc2c1CCCC2=O`, the Potency is reported as inconclusive: 1.12 µM [inhibitor, full curve].
For `COc1ccccc1N(CC(=O)NCCSCc1ccccc1)S(=O)(=O)c1ccc(C)cc1`, the Potency was inconclusive: 35.5 µM [inhibitor, partial curve, poor fit].
For `CCOC(=O)c1c(-c2ccc(F)cc2)csc1NC(=O)c1c(-c2ccccc2)noc1C`, the Potency was inconclusive: 8.91 µM [inhibitor, partial curve, poor fit].
With `COCCn1c(C)cc(C(=O)CSc2nnnn2C2CCCC2)c1C` the Potency was inconclusive: 12.6 µM [inhibitor, partial curve, poor fit].
With `CC(=O)c1ccc(S(=O)(=O)NCCC(=O)OC(C)C(=O)Nc2ccc(F)cc2)cc1` (configuration not stated) the Potency was inconclusive: 35.5 µM [inhibitor, partial curve, poor fit].
In the case of `Cc1ccc(S(=O)(=O)N2CCN(C(=O)CSc3ncc(C(F)(F)F)cc3Cl)CC2)cc1`, the activity, negative = inhibition is reported as inconclusive: -42.2% [inhibitor].
With `O=C1NC(=O)C(=Cc2ccc(-c3ccc(Cl)cc3)o2)C(=O)N1` the Potency was inconclusive: 31.6 µM [inhibitor, partial curve, poor fit].
In the case of `CN(c1cccc(Cl)c1)S(=O)(=O)c1cccc(C(=O)Nc2nc3ccccc3[nH]2)c1`, the Potency is reported as inconclusive: 12.6 µM [inhibitor, partial curve, poor fit].
In the case of `O=C(CSCc1ccc(F)cc1)N1CCN(c2ccc(F)cc2)CC1`, the “activity, negative = inhibition” value is reported as inactive: -30.1%.
For `CN(Cc1ccc(-n2cccn2)cc1)C(=O)c1cnn2c1NC(c1ccco1)CC2C(F)(F)F` (configuration not stated), the Potency was inconclusive: 25.1 µM [inhibitor, partial curve, poor fit].
With `Nc1nc(CSc2n[nH]c(-c3ccccc3)n2)nc(Nc2ccccc2)n1` the Potency was active: 25.1 µM.
In the case of `O=c1c2c(nc3cc(-c4ccc(F)cc4)[nH]n13)CCC2`, the Potency is reported as inconclusive: 39.8 µM [inhibitor, single point].
In the case of `CCN1C(=O)/C(=C/c2ccc(N(CC)CC)cc2OC)C(=O)NC1=S`, the Potency is reported as inconclusive: 35.5 µM [inhibitor, single point].
For `COc1ccccc1N1CCN(CCN2C(=O)c3ccccc3C(C)(C)C2=O)CC1`, the Potency was inconclusive: 25.1 µM [inhibitor, partial curve, poor fit].
In the case of `Cc1ccc(-n2ncc(N(C)C)c(Cl)c2=O)cc1`, the Potency is reported as inconclusive: 20 µM [inhibitor, single point].
With `CSCCC(NC(=O)OC(C)(C)C)C(=O)Oc1ccc2c(=O)c(-c3ccc4c(c3)OCCO4)coc2c1` (configuration not stated) the Potency was inconclusive: 22.4 µM [inhibitor, single point].
